No constants are given. Whether binding was seen depends on the method and setting. For part of these data: Binding seen in cells or lysates may run through a third protein. Some entries that bind do so weakly or less than the wild type. For part of these data: Tags and fused reporters may be left off the sequences shown.
Assays:
[1] = target: T1, DD of TRADD (amino acids 195-312) fused at its N-terminus with the FLAG octapeptide or the HA epitope, expressed in HeLa cells (human) (UniProt Q15628); assay: co-immunoprecipitation from lysates of transfected, 35S-labelled HeLa cells
T1 sequence (chain, by the resolver, Metabolically labelled with 35S-Met and 35S-Cys): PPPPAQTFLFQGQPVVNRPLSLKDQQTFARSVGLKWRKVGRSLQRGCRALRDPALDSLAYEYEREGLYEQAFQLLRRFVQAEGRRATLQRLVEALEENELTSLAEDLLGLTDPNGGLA

Sequences of proteins named here, by UniProt entry; tags and fusion partners are left off.
UniProt Q13158: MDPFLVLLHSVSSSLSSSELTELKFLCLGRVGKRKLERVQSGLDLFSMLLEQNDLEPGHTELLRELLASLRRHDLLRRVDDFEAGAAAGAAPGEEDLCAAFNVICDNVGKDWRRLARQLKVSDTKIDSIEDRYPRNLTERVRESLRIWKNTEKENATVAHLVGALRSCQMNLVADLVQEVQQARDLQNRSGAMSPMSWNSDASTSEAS

[2] = target: MORT-1 (bait of a two-hybrid screen) (UniProt Q13158); assay: yeast two-hybrid library screen with MORT-1 as bait (not shown)
[3] = target: full-length MORT-1 fused at its N-terminus with the FLAG octapeptide, expressed in HeLa cells (human) (UniProt Q13158); assay: co-immunoprecipitation with anti-FLAG (M2) or anti-HA (12CA5), SDS-PAGE, autoradiography

Molecule: full-length MORT-1 fused at its N-terminus with the FLAG octapeptide, expressed in HeLa cells (from UniProt Q13158 1-208)
- binding [1]: binds

B1: TRADD (encoded by cDNAs cloned in a two-hybrid screen with MORT-1) (protein, UniProt Q15628 1-312, looked up)
chain: MAAGQNGHEEWVGSAYLFVESSLDKVVLSDAYAHPQQKVAVYRALQAALAESGGSPDVLQMLKIHRSDPQLIVQLRFCGRQPCGRFLRAYREGALRAALQRSLAAALAQHSVPLQLELRAGAERLDALLADEERCLSCILAQQPDRLRDEELAELEDALRNLKCGSGARGGDGEVASAPLQPPVPSLSEVKPPPPPPPAQTFLFQGQPVVNRPLSLKDQQTFARSVGLKWRKVGRSLQRGCRALRDPALDSLAYEYEREGLYEQAFQLLRRFVQAEGRRATLQRLVEALEENELTSLAEDLLGLTDPNGGLA
- binding [2]: binds

B2: DD of TRADD (amino acids 195-312) fused at its N-terminus with the FLAG octapeptide or the HA epitope, expressed in HeLa cells (protein, not shown: small tags and cut ends)
chain: T1 sequence (chain, by the resolver, Metabolically labelled with 35S-Met and 35S-Cys)
modifications: Metabolically labelled with 35S-Met and 35S-Cys
- binding [3]: binds
